# Test results: the supplement of paper PMC10032668
# Chains of the proteins cited; added tags and fusions are not shown.
# CKS2, P33552, UniProt P33552, whole entry: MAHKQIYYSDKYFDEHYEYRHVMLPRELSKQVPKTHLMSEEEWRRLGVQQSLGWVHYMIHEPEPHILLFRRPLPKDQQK
# EIF1, P41567, UniProt P41567, whole entry: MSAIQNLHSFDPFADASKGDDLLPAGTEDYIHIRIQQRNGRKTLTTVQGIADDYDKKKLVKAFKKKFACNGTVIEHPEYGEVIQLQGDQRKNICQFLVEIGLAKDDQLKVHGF
# EIF5, P55010, UniProt P55010, whole entry: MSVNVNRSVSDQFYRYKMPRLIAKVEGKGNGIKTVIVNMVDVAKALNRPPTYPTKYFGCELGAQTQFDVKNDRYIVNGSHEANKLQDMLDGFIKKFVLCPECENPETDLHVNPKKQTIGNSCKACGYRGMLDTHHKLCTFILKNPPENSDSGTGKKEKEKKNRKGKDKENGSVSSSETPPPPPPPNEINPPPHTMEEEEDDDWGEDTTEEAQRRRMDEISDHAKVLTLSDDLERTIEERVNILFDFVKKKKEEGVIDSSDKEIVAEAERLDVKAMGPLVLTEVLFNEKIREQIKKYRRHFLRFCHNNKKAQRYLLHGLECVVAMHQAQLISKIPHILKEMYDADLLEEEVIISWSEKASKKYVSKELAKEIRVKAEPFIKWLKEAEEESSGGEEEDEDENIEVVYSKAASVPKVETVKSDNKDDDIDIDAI
# FAM168B, A1KXE4, UniProt A1KXE4, whole entry: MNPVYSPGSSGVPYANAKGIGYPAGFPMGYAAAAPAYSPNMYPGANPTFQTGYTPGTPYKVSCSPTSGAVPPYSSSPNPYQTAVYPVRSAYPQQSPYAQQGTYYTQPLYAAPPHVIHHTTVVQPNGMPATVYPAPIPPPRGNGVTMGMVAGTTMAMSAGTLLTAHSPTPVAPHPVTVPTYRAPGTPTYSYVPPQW
# HSPB1, P04792, UniProt P04792, whole entry: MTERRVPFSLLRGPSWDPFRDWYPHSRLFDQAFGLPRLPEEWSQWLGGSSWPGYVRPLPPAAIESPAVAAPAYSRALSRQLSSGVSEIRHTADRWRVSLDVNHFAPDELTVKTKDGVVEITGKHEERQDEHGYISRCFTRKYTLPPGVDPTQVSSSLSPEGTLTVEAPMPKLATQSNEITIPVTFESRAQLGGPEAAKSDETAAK
# PCBP2, Q15366, UniProt Q15366, whole entry: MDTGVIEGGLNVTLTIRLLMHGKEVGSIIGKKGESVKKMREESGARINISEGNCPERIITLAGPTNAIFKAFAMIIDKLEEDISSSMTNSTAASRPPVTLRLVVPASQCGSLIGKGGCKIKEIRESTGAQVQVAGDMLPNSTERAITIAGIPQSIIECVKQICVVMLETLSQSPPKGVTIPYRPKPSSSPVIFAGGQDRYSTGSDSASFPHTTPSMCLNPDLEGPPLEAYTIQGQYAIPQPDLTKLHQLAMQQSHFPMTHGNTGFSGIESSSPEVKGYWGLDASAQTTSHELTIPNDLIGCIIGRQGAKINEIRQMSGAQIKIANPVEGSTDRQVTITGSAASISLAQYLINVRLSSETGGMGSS
# NDUFA2, O43678, UniProt O43678, whole entry: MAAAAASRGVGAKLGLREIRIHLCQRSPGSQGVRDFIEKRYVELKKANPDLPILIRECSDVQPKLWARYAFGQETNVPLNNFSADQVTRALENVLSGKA
# PIK3R4, Q99570, UniProt Q99570, whole entry: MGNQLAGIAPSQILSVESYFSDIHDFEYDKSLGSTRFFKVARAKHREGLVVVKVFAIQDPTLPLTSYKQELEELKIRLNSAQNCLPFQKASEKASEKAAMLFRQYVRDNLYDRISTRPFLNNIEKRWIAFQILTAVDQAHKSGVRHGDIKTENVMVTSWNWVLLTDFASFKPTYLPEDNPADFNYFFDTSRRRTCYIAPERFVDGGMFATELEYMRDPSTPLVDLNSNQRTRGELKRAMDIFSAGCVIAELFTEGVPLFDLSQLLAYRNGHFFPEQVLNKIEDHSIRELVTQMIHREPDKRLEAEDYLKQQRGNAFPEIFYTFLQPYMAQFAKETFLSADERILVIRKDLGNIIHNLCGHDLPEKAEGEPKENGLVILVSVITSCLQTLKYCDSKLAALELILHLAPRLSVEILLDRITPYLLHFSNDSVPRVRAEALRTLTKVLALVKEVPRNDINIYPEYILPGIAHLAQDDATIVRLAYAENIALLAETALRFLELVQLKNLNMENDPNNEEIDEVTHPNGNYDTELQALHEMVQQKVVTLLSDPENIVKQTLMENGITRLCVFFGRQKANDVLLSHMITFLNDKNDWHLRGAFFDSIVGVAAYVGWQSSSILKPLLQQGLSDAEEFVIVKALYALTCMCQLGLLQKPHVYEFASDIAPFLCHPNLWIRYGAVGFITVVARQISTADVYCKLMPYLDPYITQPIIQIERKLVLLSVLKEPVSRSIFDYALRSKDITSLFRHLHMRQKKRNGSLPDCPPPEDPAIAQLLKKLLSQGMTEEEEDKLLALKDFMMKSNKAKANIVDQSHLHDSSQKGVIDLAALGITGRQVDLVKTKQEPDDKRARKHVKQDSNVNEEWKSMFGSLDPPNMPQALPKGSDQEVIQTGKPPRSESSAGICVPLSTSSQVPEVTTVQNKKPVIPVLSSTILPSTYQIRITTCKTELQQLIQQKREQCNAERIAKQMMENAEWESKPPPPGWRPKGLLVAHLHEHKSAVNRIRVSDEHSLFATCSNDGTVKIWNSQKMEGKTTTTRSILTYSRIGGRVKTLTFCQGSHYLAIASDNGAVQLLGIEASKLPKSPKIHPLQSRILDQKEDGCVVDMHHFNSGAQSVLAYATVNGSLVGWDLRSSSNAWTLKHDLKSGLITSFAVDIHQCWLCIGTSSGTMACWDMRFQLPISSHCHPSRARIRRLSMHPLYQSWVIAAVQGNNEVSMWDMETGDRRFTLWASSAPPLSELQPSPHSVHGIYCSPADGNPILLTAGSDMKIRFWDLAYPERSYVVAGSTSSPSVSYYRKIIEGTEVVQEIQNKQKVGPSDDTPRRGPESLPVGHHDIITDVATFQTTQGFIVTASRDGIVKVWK
# BUB3, O43684, UniProt O43684, whole entry: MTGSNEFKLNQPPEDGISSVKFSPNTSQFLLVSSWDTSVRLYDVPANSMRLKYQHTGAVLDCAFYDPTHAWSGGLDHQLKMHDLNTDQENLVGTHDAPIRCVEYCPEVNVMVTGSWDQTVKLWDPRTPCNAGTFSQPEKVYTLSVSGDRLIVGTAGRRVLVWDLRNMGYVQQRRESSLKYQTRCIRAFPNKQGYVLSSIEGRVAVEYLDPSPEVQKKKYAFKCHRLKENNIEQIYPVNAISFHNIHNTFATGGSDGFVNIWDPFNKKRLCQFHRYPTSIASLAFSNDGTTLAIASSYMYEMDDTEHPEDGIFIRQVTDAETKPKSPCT
# GTF2F2, P13984, UniProt P13984, whole entry: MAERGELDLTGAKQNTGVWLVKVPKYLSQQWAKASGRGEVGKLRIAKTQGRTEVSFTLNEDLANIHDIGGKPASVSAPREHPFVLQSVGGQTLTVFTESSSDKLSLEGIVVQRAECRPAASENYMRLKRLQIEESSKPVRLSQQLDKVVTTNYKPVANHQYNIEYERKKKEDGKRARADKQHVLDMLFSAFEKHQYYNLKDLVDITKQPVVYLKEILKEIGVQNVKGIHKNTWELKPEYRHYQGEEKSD
# HBS1L, Q9Y450, UniProt Q9Y450, whole entry: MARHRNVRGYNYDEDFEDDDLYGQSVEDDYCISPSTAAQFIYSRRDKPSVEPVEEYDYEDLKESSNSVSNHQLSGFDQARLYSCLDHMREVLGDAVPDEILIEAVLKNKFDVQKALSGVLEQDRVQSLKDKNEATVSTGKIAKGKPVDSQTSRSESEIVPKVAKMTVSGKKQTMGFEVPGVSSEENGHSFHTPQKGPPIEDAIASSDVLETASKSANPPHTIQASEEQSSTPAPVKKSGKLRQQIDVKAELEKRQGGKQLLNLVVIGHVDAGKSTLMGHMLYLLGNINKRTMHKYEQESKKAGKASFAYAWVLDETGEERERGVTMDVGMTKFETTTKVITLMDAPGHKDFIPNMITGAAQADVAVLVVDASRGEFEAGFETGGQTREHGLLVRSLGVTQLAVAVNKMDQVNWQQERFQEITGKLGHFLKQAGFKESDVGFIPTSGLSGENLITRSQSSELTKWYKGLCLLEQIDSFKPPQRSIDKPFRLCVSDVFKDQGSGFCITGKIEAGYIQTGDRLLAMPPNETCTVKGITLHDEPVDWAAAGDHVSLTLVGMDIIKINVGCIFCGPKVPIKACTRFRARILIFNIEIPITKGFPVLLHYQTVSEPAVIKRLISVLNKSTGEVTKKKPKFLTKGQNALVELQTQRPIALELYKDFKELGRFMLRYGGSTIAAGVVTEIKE
# PFN1, P07737, UniProt P07737, whole entry: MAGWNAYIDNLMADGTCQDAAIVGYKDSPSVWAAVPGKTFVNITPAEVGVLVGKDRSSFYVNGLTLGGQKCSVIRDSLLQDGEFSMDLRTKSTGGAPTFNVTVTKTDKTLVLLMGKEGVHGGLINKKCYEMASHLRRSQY
# RBBP5, Q15291, UniProt Q15291, whole entry: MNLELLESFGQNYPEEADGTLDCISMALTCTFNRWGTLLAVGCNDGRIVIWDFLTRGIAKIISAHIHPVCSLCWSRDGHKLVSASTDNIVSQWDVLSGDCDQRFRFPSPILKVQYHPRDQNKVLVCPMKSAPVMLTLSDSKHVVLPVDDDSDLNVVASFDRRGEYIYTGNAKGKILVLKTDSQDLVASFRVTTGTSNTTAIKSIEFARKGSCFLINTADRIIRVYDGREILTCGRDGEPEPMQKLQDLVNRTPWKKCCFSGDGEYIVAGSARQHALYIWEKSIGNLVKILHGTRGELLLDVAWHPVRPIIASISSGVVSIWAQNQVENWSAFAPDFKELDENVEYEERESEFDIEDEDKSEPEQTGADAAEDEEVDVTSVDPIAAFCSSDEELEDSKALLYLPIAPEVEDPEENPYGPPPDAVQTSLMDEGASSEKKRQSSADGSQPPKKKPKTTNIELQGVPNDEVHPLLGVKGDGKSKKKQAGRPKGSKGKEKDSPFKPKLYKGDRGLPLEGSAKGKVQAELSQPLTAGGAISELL
# The other results are listed elsewhere or left out. The list holds hits alone, and they repeat only in part.
# Columns and labels:
# Test in all cases: PRISMA enrichment of interactor (LFQ) in peptide spot vs all other peptide spots (log2 fold change); higher = stronger / more specific binding of the interactor to the peptide
# [1] = target: ATP5MF, P56134
# Experimental: (§1)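 PRISMA: 15-aa overlapping tiles (offset 8 aa) of 60 microproteins, plus SOS1/GLUT1 control peptides, were spot-synthesized on cellulose membranes in triplicate. Membranes were incubated with benzonase-treated HEK293T lysate, and bound proteins were identified by LC-MS/MS with LFQ. Enrichment is the log2 fold change of each protein in one spot versus all other spots. Only interactors passing the significance cutoff are listed.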
# [2] = target: CKS2, P33552
# Experimental: as §1
# [3] = target: DNAJB11, Q9UBS4
# Experimental: as §1
# [4] = target: EIF1, P41567
# Experimental: as §1
# [5] = target: EIF5, P55010
# Experimental: as §1
# [6] = target: EPS15, P42566
# Experimental: as §1
# [7] = target: FAM168B, A1KXE4
# Experimental: as §1
# [8] = target: HSPB1, P04792
# Experimental: as §1
# [9] = target: LSM12, Q3MHD2
# Experimental: as §1
# [10] = target: MLEC, Q14165
# Experimental: as §1
# [11] = target: NTPCR, Q9BSD7
# Experimental: as §1
# [12] = target: PCBP2, Q15366
# Experimental: as §1
# [13] = target: SDF2L1, Q9HCN8
# Experimental: as §1
# [14] = target: UBAP2L, Q14157
# Experimental: as §1
# [15] = target: CSNK2A1, P68400
# Experimental: as §1
# [16] = target: LUC7L3, O95232
# Experimental: as §1
# [17] = target: NDUFA2, O43678
# Experimental: as §1
# [18] = target: NOP16, Q9Y3C1
# Experimental: as §1
# [19] = target: PIK3R4, Q99570
# Experimental: as §1
# [20] = target: ATP5MG, O75964
# Experimental: as §1
# [21] = target: BUB3, O43684
# Experimental: as §1
# [22] = target: C1QBP, Q07021
# Experimental: as §1
# [23] = target: CD2BP2, O95400
# Experimental: as §1
# [24] = target: CIAO1, O76071
# Experimental: as §1
# [25] = target: CPSF1, Q10570
# Experimental: as §1
# [26] = target: ERLIN2, O94905
# Experimental: as §1
# [27] = target: GPC4, O75487
# Experimental: as §1
# [28] = target: GTF2F2, P13984
# Experimental: as §1
# [29] = target: HBS1L, Q9Y450
# Experimental: as §1
# [30] = target: IPO11, Q9UI26
# Experimental: as §1
# [31] = target: KLF16, Q9BXK1
# Experimental: as §1
# [32] = target: MAP3K20, Q9NYL2
# Experimental: as §1
# [33] = target: MCMBP, Q9BTE3
# Experimental: as §1
# [34] = target: MPDU1, O75352
# Experimental: as §1
# [35] = target: NR3C1, P04150
# Experimental: as §1
# [36] = target: NUSAP1, Q9BXS6
# Experimental: as §1
# [37] = target: PEX11B, O96011
# Experimental: as §1
# [38] = target: PFN1, P07737
# Experimental: as §1
# [39] = target: PSIP1, O75475
# Experimental: as §1
# [40] = target: PWP1, Q13610
# Experimental: as §1
# [41] = target: RAB11A, P62491
# Experimental: as §1
# [42] = target: RABL3, Q5HYI8
# Experimental: as §1
# [43] = target: RBBP5, Q15291
# Experimental: as §1
# [44] = target: RIC8A, Q9NPQ8
# Experimental: as §1
# [45] = target: SMC3, Q9UQE7
# Experimental: as §1
# [46] = target: SPATS2L, Q9NUQ6
# Experimental: as §1
# [47] = target: STMN1, P16949
# Experimental: as §1
# [48] = target: TBCD, Q9BTW9
# Experimental: as §1
# [49] = target: UFL1, O94874
# Experimental: as §1
# [50] = target: ZC2HC1A, Q96GY0
# Experimental: as §1
binder,measurement,setting,value
PMIMSTTALLQFWFV [PDZRN3-AS1],PRISMA enrichment of interactor (log2),[1],5.22
same,PRISMA enrichment of interactor (log2),[2],5.3
same,PRISMA enrichment of interactor (log2),[3],5.07
same,PRISMA enrichment of interactor (log2),[4],5.28
same,PRISMA enrichment of interactor (log2),[5],4.74
same,PRISMA enrichment of interactor (log2),[6],3.69
same,PRISMA enrichment of interactor (log2),[7],5.93
same,PRISMA enrichment of interactor (log2),[8],4.09
same,PRISMA enrichment of interactor (log2),[9],4.63
same,PRISMA enrichment of interactor (log2),[10],6.09
same,PRISMA enrichment of interactor (log2),[11],5.44
same,PRISMA enrichment of interactor (log2),[12],5
same,PRISMA enrichment of interactor (log2),[13],4.51
same,PRISMA enrichment of interactor (log2),[14],5.5
SPGRFFHNLNLSSPG [EBAG9],PRISMA enrichment of interactor (log2),[1],6.78
same,PRISMA enrichment of interactor (log2),[15],10.2
same,PRISMA enrichment of interactor (log2),[16],5.2
same,PRISMA enrichment of interactor (log2),[17],3.93
same,PRISMA enrichment of interactor (log2),[18],6.53
same,PRISMA enrichment of interactor (log2),[19],5.94
APVDAAELPQRRRHR [RNF10],PRISMA enrichment of interactor (log2),[20],8.25
same,PRISMA enrichment of interactor (log2),[21],4.2
same,PRISMA enrichment of interactor (log2),[22],6.09
same,PRISMA enrichment of interactor (log2),[23],3.99
same,PRISMA enrichment of interactor (log2),[24],5.2
same,PRISMA enrichment of interactor (log2),[25],4.54
same,PRISMA enrichment of interactor (log2),[26],4.98
same,PRISMA enrichment of interactor (log2),[27],6.29
same,PRISMA enrichment of interactor (log2),[28],8.82
same,PRISMA enrichment of interactor (log2),[29],4.66
same,PRISMA enrichment of interactor (log2),[30],7.73
same,PRISMA enrichment of interactor (log2),[31],5.8
same,PRISMA enrichment of interactor (log2),[32],6.16
same,PRISMA enrichment of interactor (log2),[33],4.45
same,PRISMA enrichment of interactor (log2),[34],4.97
same,PRISMA enrichment of interactor (log2),[35],4.71
same,PRISMA enrichment of interactor (log2),[36],4.68
same,PRISMA enrichment of interactor (log2),[37],10.7
same,PRISMA enrichment of interactor (log2),[38],4.63
same,PRISMA enrichment of interactor (log2),[39],5.27
same,PRISMA enrichment of interactor (log2),[40],4.61
same,PRISMA enrichment of interactor (log2),[41],5.66
same,PRISMA enrichment of interactor (log2),[42],5.67
same,PRISMA enrichment of interactor (log2),[43],4.24
same,PRISMA enrichment of interactor (log2),[44],5.04
same,PRISMA enrichment of interactor (log2),[45],7.2
same,PRISMA enrichment of interactor (log2),[46],6.36
same,PRISMA enrichment of interactor (log2),[47],6.9
same,PRISMA enrichment of interactor (log2),[48],7.82
same,PRISMA enrichment of interactor (log2),[49],5.45
same,PRISMA enrichment of interactor (log2),[50],5.02

# An excerpt of these results, with bars between the fields.
binder | measurement | setting | value
PMIMSTTALLQFWFV [PDZRN3-AS1] | PRISMA enrichment of interactor (log2) | [8] | 4.09
same | PRISMA enrichment of interactor (log2) | [9] | 4.63
